From patent publication US20240254229A1 (Molecular Partners, published 2024)
These are yes or no findings as the source states them, for the method shown. Some results given as binding are weak or reduced against the parent protein; the word gives no strength.

Protein sequences, listed by entry. Tags and fused reporters are not part of them. Residues count along the entry.
UniProt P20138, residues 18-259: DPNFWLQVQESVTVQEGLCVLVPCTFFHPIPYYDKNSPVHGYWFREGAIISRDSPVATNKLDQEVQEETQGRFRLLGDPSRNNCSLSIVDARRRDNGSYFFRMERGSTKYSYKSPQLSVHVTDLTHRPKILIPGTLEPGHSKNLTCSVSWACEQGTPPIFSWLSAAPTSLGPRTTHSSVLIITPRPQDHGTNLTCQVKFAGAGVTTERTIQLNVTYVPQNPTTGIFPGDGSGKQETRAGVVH

Assays:
[1] = biological target: T1, hCD123 (recombinant, construct not stated) (human) (UniProt P26951); assay: SPR (Sierra SPR-32, Bruker); DARPin protein #56 held on immobilized HSA, 500 nM hCD123 injected; single-injection control (A3) and sequential run (A1, after hCD70)
T1 sequence (looked up): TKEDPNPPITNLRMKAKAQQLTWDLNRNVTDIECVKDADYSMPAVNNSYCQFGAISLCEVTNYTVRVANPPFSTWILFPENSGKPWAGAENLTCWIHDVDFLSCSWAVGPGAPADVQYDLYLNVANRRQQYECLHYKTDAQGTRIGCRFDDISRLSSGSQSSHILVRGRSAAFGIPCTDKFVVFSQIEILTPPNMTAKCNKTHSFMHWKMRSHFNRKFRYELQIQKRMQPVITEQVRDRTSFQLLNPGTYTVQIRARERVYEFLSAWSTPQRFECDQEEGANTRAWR

[2] = biological target: T2, hCD70 (recombinant, construct not stated) (human) (UniProt P32970); assay: SPR (Sierra SPR-32, Bruker); DARPin protein #56 held on immobilized HSA, 200 nM hCD70 injected; single-injection control (A2) and sequential run (A1)
T2 sequence (looked up): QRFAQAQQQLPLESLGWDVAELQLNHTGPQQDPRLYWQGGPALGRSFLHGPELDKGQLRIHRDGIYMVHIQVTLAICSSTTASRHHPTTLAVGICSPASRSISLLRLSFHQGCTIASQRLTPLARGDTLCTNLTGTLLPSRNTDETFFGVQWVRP

[3] = biological target: Molm-13 N1 tumor cells (carrying CD123, CD33 and CD70) (human) (UniProt P20138+P26951+P32970); assay: flow cytometry on Molm-13 N1 cells, anti-DARPin rabbit antibody and Alexa Fluor 647 secondary antibody, 20 µM HSA
[4] = biological target: T1, hCD123 (recombinant, construct not stated) (human); assay: SPR trace
[5] = biological target: T2, hCD70 (recombinant, construct not stated) (human); assay: SPR trace
[6] = biological target: hCD33 (recombinant, construct not stated) (human) (UniProt P20138); assay: SPR trace
[7] = biological target: T1, hCD123 (recombinant, construct not stated) (human); assay: SPR, measured against calculated sensorgram
[8] = biological target: T2, hCD70 (recombinant, construct not stated) (human); assay: SPR, measured against calculated sensorgram
[9] = biological target: hCD33 (recombinant, construct not stated) (human) (UniProt P20138); assay: SPR, measured against calculated sensorgram
[10] = biological target: T1, hCD123 (recombinant, construct not stated) (human); assay: SPR, sequential injections
[11] = biological target: T2, hCD70 (recombinant, construct not stated) (human); assay: SPR, sequential injections
[12] = biological target: hCD33 (recombinant, construct not stated) (human) (UniProt P20138); assay: SPR, sequential injections
[13] = biological target: hCD33 (recombinant, construct not stated) (human) (UniProt P20138); assay: SPR (Sierra SPR-32, Bruker); DARPin protein #56 held on immobilized HSA, 150 nM hCD33 injected as the first part of the dual injection; single-injection control and sequential run (A1, after hCD70 and hCD123)
[14] = biological target: T3, hCD33 and hCD123 immobilized simultaneously on one switchSENSE chip (ratio 2:1, CD33:CD123) (human) (UniProt P20138+P26951); assay: switchSENSE, hCD33 and hCD123 co-immobilised 2:1; panel headed CD123, column koff2 (slow phase, avidity per paragraph 695)
[15] = biological target: T3, hCD33 and hCD123 immobilized simultaneously on one switchSENSE chip (ratio 2:1, CD33:CD123) (human); assay: switchSENSE, hCD33 and hCD123 co-immobilised 2:1; panel headed CD33, column koff2 (slow phase, avidity per paragraph 695)
[16] = biological target: T3, hCD33 and hCD123 immobilized simultaneously on one switchSENSE chip (ratio 2:1, CD33:CD123) (human); assay: switchSENSE, CD33 and CD123 on one chip
[17] = biological target: T1, hCD123 (recombinant, construct not stated) (human); assay: switchSENSE, hCD33 and hCD123 co-immobilised 2:1; panel headed CD123, column koff1
[18] = biological target: hCD33 (recombinant, construct not stated) (human) (UniProt P20138); assay: switchSENSE, hCD33 and hCD123 co-immobilised 2:1; panel headed CD33, column koff1
[19] = biological target: hCD33 (recombinant, construct not stated) (human) (UniProt P20138); assay: switchSENSE, hCD33 and hCD123 co-immobilised 2:1 on DNA nanolevers; panel headed CD33, column kon1
[20] = biological target: T1, hCD123 (recombinant, construct not stated) (human); assay: switchSENSE, hCD33 and hCD123 co-immobilised 2:1; panel headed CD123, column kon1
[21] = biological target: T3, hCD33 and hCD123 immobilized simultaneously on one switchSENSE chip (ratio 2:1, CD33:CD123) (human); assay: switchSENSE, hCD33 and hCD123 co-immobilised 2:1; panel headed CD123, column kon2 (second phase, avidity per paragraph 695)
[22] = biological target: T3, hCD33 and hCD123 immobilized simultaneously on one switchSENSE chip (ratio 2:1, CD33:CD123) (human); assay: switchSENSE, hCD33 and hCD123 co-immobilised 2:1; panel headed CD33, column kon2 (second phase, avidity per paragraph 695)
[23] = biological target: T3, hCD33 and hCD123 immobilized simultaneously on one switchSENSE chip (ratio 2:1, CD33:CD123) (human); assay: switchSENSE, hCD33 and hCD123 co-immobilised 2:1; panel headed CD123, y axis koff, second column (slow phase, avidity per paragraph 694)
[24] = biological target: T3, hCD33 and hCD123 immobilized simultaneously on one switchSENSE chip (ratio 2:1, CD33:CD123) (human); assay: switchSENSE, hCD33 and hCD123 co-immobilised 2:1; panel headed CD123, y axis kon, second column (second phase, avidity per paragraph 692)
[25] = biological target: T1, hCD123 (recombinant, construct not stated) (human); assay: switchSENSE, hCD33 and hCD123 co-immobilised 2:1; panel headed CD123, y axis kon
[26] = biological target: T1, hCD123 (recombinant, construct not stated) (human); assay: switchSENSE, hCD33 and hCD123 co-immobilised 2:1; panel headed CD123, y axis koff
[27] = biological target: T3, hCD33 and hCD123 immobilized simultaneously on one switchSENSE chip (ratio 2:1, CD33:CD123) (human); assay: switchSENSE, hCD33 and hCD123 co-immobilised 2:1; panel headed CD33, column koff2 (slow phase, avidity per paragraph 692)
[28] = biological target: T3, hCD33 and hCD123 immobilized simultaneously on one switchSENSE chip (ratio 2:1, CD33:CD123) (human); assay: switchSENSE, hCD33 and hCD123 co-immobilised 2:1; panel headed CD33, column kon2 (second phase, avidity per paragraph 692)
[29] = biological target: T3, hCD33 and hCD123 immobilized simultaneously on one switchSENSE chip (ratio 2:1, CD33:CD123) (human); assay: switchSENSE; KD,2 (avidity)

Measured: binding

B1: DARPin® protein #56 (designed binder)
chain: DLGKKLLEAARAGQDDEVRELLKAGADVNAKDYFSHTPLHLAARNGHLKIVEVLLKAGADVNAKDFAGKTPLHLAAADGHLEIVEVLLKAGADVNAQDIFGKTPADIAADAGHEDIAEVLQKAAGSPTPTPTTPTPTPTTPTPTPTGSDLGKKLLEAARAGQDDEVRELLKAGADVNAKDYFSHTPLHLAARNGHLKIVEVLLKAGADVNAKDFAGKTPLHLAAADGHLEIVEVLLKAGADVNAQDIFGKTPADIAADAGHEDIAEVLQKAAGSPTPTPTTPTPTPTTPTPTPTGSDLGVKLLLAAERGQLDEVRILLKAGADVNAKDIAEGYTPLHIAAYQGHLEIVEVLLKAGADVNAKDRYGKTPLHLAAIGGHLEIVEVLLKAGADVNAQDNKGSTPADLAADYGHQDIAEVLQKAAGSPTPTPTTPTPTPTTPTPTPTGSDLGKKLLEAALEGQLDEVRELLKAGADVNAKDQEGYTPLHLAAALGHLEIVEVLLKAGADVNAKDQIGRTPLHLAAYKGHLEIVEVLLKAGADVNAQDIIGQTPADLAAQRGHQDIAEVLQKAAGSPTPTPTTPTPTPTTPTPTPTGSDLGIKLLTAAYDGQLDEVRILLKAGADVNAKDLRGQTPLHYAAGLGHLEIVEVLLKAGADVNAKDLHGWTPLHLAAWSGHLEIVEVLLKAGADVNAQDVEGVTPADLAAVQGHQDIAEVLQKAAGSPTPTPTTPTPTPTTPTPTPTGSDLGQKLLEAAWAGQDDEVRELLKAGADVNAKNSRGWTPLHTAAQTGHLEIFEVLLKAGADVNAKNDKRVTPLHLAAALGHLEIVEVLLKAGADVNARDSWGTTPADLAAKYGHQDIAEVLQKAA
notes: HSA-HSA-CD33-CD123-CD70-CD3; not shown: N-terminal His-tag
binds: [1] | [2] | [3] | [4] | [5] | [6] | [7] | [8] | [9] | [10] | [11] | [12] | [13]

B2: DARPin® protein #27 (designed binder)
chain: DLGKKLLEAALEGQLDEVRELLKAGADVNAKDQEGYTPLHLAAALGHLEIVEVLLKAGADVNAKDSIGRTPLHLAAYKGHLEIVEVLLKAGADVNAQDLLGETPADLAAEQGHQDIAEVLQKAAGSPTPTPTTPTPTPTTPTPTPTGSDLGVKLLLAASRGQLDEVRILLKAGADVNAKDIDEGYTPLHIAAYYGHLEIVEVLLKAGADVNAKDRYGKTPLHLAAISGHLEIVEVLLKAGADVNAQDDKGDTPADLAADYGHQDIAEVLQKAAGSPTPTPTTPTPTPTTPTPTPTGSDLGQKLLEAAWAGQDDEVRELLKAGADVNAKNSRGWTPLHTAAQTGHLEIFEVLLKAGADVNAKDDKGVTPLHLAAALGHLEIVEVLLKAGADVNAQDSWGTTPADLAAKYGHEDIAEVLQKAA
notes: CD123-CD33-CD3; also called αCD123-aCD33-αCD3_1; not shown: N-terminal His-tag
binds: [14] | [15] | [16] | [17] | [18] | [19] | [20] | [21] | [22]

B3: DARPin® protein #20 (designed binder)
chain: DLGKKLLEAARAGQDDEVRILMANGADVNALDWLGHTPLHLAAYEGHLEIVEVLLKNGADVNAIDDNNGFTPLHLAAIDGHLEIVEVLLKNGADVNAQDKFGKTAFDISIDNGNEDLAEILQKAAGSPTPTPTTPTPTPTTPTPTPTGSDLGDKLLLAATSGQDDEVRILLAAGADVNAKDYDGDTPLHLAADEGHLEIVEVLLKAGADVNAKDYSGSTPLHAAAAYGHLEIVEVLLKAGADVNAQDVFGYTPADLAAYVGHEDIAEVLQKAAGSPTPTPTTPTPTPTTPTPTPTGSDLGQKLLEAAWAGQDDEVRILLAAGADVNAKNSRGWTPLHTAAQTGHLEIFEVLLKAGADVNAKNDKRVTPLHLAAALGHLEIVEVLLKAGADVNARDSWGTTPADLAAKYGHGDIAEVLQKLA
notes: CD123-CD33-CD3; also called αCD123-αCD33-αCD3_1
binds: [23] | [24] | [25] | [16] | [26] | [18] | [19] | [27] | [28] | [29]
